# Results: PubChem BioAssay AID192 (DTP/NCI, 2004)
# The list shows only some results of the screen, not a fair sample: it is rich in T/C values a quarter to a half above the control, in often repeated tests (any T/C) and in doses without a T/C. Other doses and runs of a compound stand elsewhere. T/C is the treated group as % of the vehicle group. Some entries give survivors of the animals treated and no T/C: the source holds a T/C of zero for them, seemingly a mark for toxic or unscored doses. Some doses without a T/C left all or most animals alive at the check, yet need not have been tolerated: survival well below the control is almost never listed, so the zero probably covers shortened survival too. Counts of survivors are from the toxicity check (mostly the fifth day) where no day follows; animals may have died later. Schedules are NCI's codes, read here as Q, the interval in days (D) or hours (H), X, the number of doses. Brackets with × stand for listed records that agree. Some entries hold several experiments; the results are listed from low to high. Where survival is the endpoint, this PubChem deposit counts one and a half times the control or more as active, and values a quarter to a half above the control carry no call in these data; other NCI protocols may use other cut-offs. Some T/C values are followed by the survivors on the day toxicity was checked, most often the fifth; where none is given, no animal had died by that day.
# Test system: BDF1 mice, B16 melanoma ip, median survival T/C
# Experiment: NCI In Vivo Anticancer Drug Screen. Data for tumor model B16 Melanoma (intraperitoneal) in B6D2F1 (BDF1) mice
# Settings: T/C endpoint: median survival time, higher T/C = longer survival
# Method in brief: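 The ratio T/C compares compound-treated mice with vehicle-treated controls, using survival or tumor size as the endpoint in a transplantable tumor model.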
# [1] = dose: 25.0 mg/kg/injection, schedule: Q01DX009 (ip), vehicle: saline with Tween-80
# [2] = dose: 50.0 mg/kg/injection, schedule: Q01DX009 (ip), vehicle: saline with Tween-80
# [3] = dose: 100.0 mg/kg/injection, schedule: Q01DX009 (ip), vehicle: saline with Tween-80
# [4] = dose: 200.0 mg/kg/injection, schedule: Q01DX009 (ip), vehicle: saline with Tween-80
# [5] = dose: 50.0 mg/kg/injection, schedule: Q01DX009 (ip), vehicle: Klucel (hydroxypropylcellulose) (HPC)
# [6] = dose: 100.0 mg/kg/injection, schedule: Q01DX009 (ip), vehicle: Klucel (hydroxypropylcellulose) (HPC)
# [7] = dose: 200.0 mg/kg/injection, schedule: Q01DX009 (ip), vehicle: Klucel (hydroxypropylcellulose) (HPC)
# [8] = dose: 200.0 mg/kg/injection, schedule: Q01DX009 (ip), vehicle: saline
# [9] = dose: 400.0 mg/kg/injection, schedule: Q01DX009 (ip), vehicle: saline with Tween-80
# [10] = dose: 12.5 mg/kg/injection, schedule: Q01DX009 (ip), vehicle: Klucel (hydroxypropylcellulose) (HPC)
# [11] = dose: 400.0 mg/kg/injection, schedule: Q01DX009 (ip), vehicle: Klucel (hydroxypropylcellulose) (HPC)
compound,measurement,setting,value
Nc1nc(SCc2ccccc2)c2[nH]cnc2n1,survivor count,[1],6 of 6
same,survivor count,[2],5 of 6
same,survivor count,[3],6 of 6
same,survivor count,[4],6 of 6
O=C1CCNC(=O)N1OS(=O)(=O)c1ccccc1,survivor count,[5],10 of 10
same,survivor count,[6],9 of 10
same,survivor count,[7],4 of 10
CN(C)CCCNc1cc(O)c2c(c1O)C(=O)c1ccccc1C2=O,survivor count,"dose: 200.0 mg/kg/injection, schedule: Q01DX009 (ip), vehicle: water",8 of 10
same,survivor count,"dose: 400.0 mg/kg/injection, schedule: Q01DX009 (ip), vehicle: water",8 of 10
CC(=O)OCC1OC(n2ccc(N)nc2=O)C(OC(C)=O)C1OC(C)=O (stereo unspecified),survivor count,[8],10 of 10
same,survivor count,"dose: 400.0 mg/kg/injection, schedule: Q01DX009 (ip), vehicle: saline",10 of 10
NC(=S)N/N=C/c1cc(-c2cccc(N)c2)ccn1,T/C,"dose: 3.13 mg/kg/injection, schedule: Q01DX009 (ip), vehicle: saline",131 % of control
same,T/C,"dose: 6.25 mg/kg/injection, schedule: Q01DX009 (ip), vehicle: saline",143 % of control
same,T/C,"dose: 9.4 mg/kg/injection, schedule: Q04DX003 (ip), vehicle: saline",138 % of control
same,T/C,"dose: 12.5 mg/kg/injection, schedule: Q01DX009 (ip), vehicle: saline with Tween-80, evaluated on day 45",133 % of control
same,T/C,"dose: 12.5 mg/kg/injection, schedule: Q01DX009 (ip), vehicle: saline with Tween-80, evaluated on day 60",134 % of control
same,T/C,"dose: 18.8 mg/kg/injection, schedule: Q04DX003 (ip), vehicle: saline",144 % of control
same,T/C,"dose: 25.0 mg/kg/injection, schedule: Q01DX009 (ip), vehicle: saline with Tween-80, evaluated on day 45",138 % of control
same,T/C,"dose: 25.0 mg/kg/injection, schedule: Q01DX009 (ip), vehicle: saline with Tween-80, evaluated on day 60",128 and 133 % of control
same,T/C,"dose: 50.0 mg/kg/injection, schedule: Q01DX009 (ip), vehicle: saline with Tween-80, evaluated on day 45",144 % of control
same,T/C,"dose: 50.0 mg/kg/injection, schedule: Q01DX009 (ip), vehicle: saline with Tween-80, evaluated on day 60",131 and 147 % of control
same,T/C,"dose: 50.0 mg/kg/injection, schedule: Q01DX009 (ip), vehicle: saline",148 % of control
same,T/C,"dose: 75.0 mg/kg/injection, schedule: Q01DX009 (ip), vehicle: saline with Tween-80",144 % of control
O=C1C(=O)c2ccccc2C(O)=C1CCCc1ccc(C2CCCCCC2)cc1,survivor count,[3],9 of 10
same,survivor count,[4],8 of 10
O=CNc1cc2ccccc2c2ccc3ccccc3c12,survivor count,"dose: 200.0 mg/kg/injection, schedule: Q04DX003 (ip), vehicle: Klucel (hydroxypropylcellulose) (HPC)",9 of 10
COc1cccc2c1C(=O)c1c(O)c3c(c(O)c1C2=O)C[C@@](O)(C(C)=O)C[C@@H]3OC1CC(N2CCOCC2C#N)C(O)C(C)O1 (stereo partly specified),T/C,"dose: 18.75 micrograms/kg/injection, schedule: Q01DX001 (ip), vehicle: distilled water + Tween-80",129 % of control
same,T/C,"dose: 37.5 micrograms/kg/injection, schedule: Q01DX001 (ip), vehicle: distilled water + Tween-80",137 % of control
same,T/C,"dose: 37.5 micrograms/kg/injection, schedule: Q01DX001 (ip), vehicle: water",129 % of control
same,T/C,"dose: 75.0 micrograms/kg/injection, schedule: Q01DX001 (ip), vehicle: distilled water + Tween-80",134 % of control
same,T/C,"dose: 150.0 micrograms/kg/injection, schedule: Q01DX001 (ip), vehicle: distilled water + Tween-80",141 % of control
same,T/C,"dose: 150.0 micrograms/kg/injection, schedule: Q01DX001 (ip), vehicle: water",136 % of control
same,T/C,"dose: 300.0 micrograms/kg/injection, schedule: Q01DX001 (ip), vehicle: water",134 % of control
C[C@]12CC[C@H](OC(=O)Cc3ccc(N(CCCl)CCCl)cc3)CC1=CC[C@@H]1[C@@H]2CC[C@]2(C)C(=O)CC[C@@H]12,survivor count,[9],10 of 10
ClCCN(CCCl)CCCN1c2ccccc2Sc2ccc(Cl)cc21,T/C,"dose: 6.25 mg/kg/injection, schedule: Q01DX009 (ip), vehicle: saline with Tween-80",138 % of control
same,survivor count,"dose: 35.0 mg/kg/injection, schedule: Q01DX009 (ip), vehicle: saline with Tween-80",2 of 10
same,survivor count,"dose: 55.0 mg/kg/injection, schedule: Q01DX009 (ip), vehicle: saline with Tween-80",0 of 10
same,survivor count,"dose: 80.0 mg/kg/injection, schedule: Q01DX009 (ip), vehicle: saline with Tween-80",1 of 10
CSc1nc2cc(C)c(C)cc2[nH]1,survivor count,[4],10 of 10
same,survivor count,[9],10 of 10
c1ccc(N/N=C2/c3ccccc3CC23OC3c2ccccc2)cc1 (stereo unspecified),survivor count,[7],8 of 8
COc1ccc2c(NCCCCCCNc3c4ccccc4nc4cc(OC)ccc34)c3ccccc3nc2c1,survivor count,"dose: 0.63 mg/kg/injection, schedule: Q01DX009 (ip), vehicle: lactic acid",0 of 10
same,survivor count,"dose: 1.25 mg/kg/injection, schedule: Q01DX009 (ip), vehicle: lactic acid",0 of 10
same,survivor count,"dose: 2.5 mg/kg/injection, schedule: Q01DX009 (ip), vehicle: lactic acid",1 of 10
same,survivor count,"dose: 5.0 mg/kg/injection, schedule: Q01DX009 (ip), vehicle: lactic acid",0 of 10
same,survivor count,"dose: 10.0 mg/kg/injection, schedule: Q01DX009 (ip), vehicle: lactic acid",1 of 10
same,survivor count,"dose: 15.0 mg/kg/injection, schedule: Q01DX009 (ip), vehicle: lactic acid",0 of 10
Cc1cccc(/C=N\OCCc2ccccc2)n1,survivor count,[9],10 of 10
CCOC(=O)/C=C/c1ccc2c(c1)OCO2,T/C,"dose: 100.0 mg/kg/injection, schedule: Q04DX003 (ip), vehicle: saline with Tween-80",143 % of control
same,T/C,"dose: 200.0 mg/kg/injection, schedule: Q04DX003 (ip), vehicle: saline with Tween-80",133 % of control
same,T/C,"dose: 400.0 mg/kg/injection, schedule: Q04DX003 (ip), vehicle: saline with Tween-80",125 % of control [9 of 10 alive]
Cc1cc(N)c2cc(NC(=O)CCCCCCCCC(=O)Nc3ccc4nc(C)cc(N)c4c3)ccc2n1,survivor count,[10],10 of 10
same,survivor count,[6],10 of 10
same,survivor count,[7],10 of 10
same,survivor count,[11],4 of 10
CCC(CC)COC(=O)c1ccccc1C(=O)OCC(CC)CC,survivor count,[1],10 of 10
same,survivor count,[2],9 of 10
same,survivor count,[3],9 of 10 and 10 of 10
same,survivor count,[4],10 of 10 (2×)
same,survivor count,[9],10 of 10 (2×)
Cc1ccccc1N=Nc1c(N)ccc2ccccc12,survivor count,[6],10 of 10
same,survivor count,[7],10 of 10
same,survivor count,[11],10 of 10
CC1(C)N=C(N)N=C(N)N1c1cccc(CCCCc2cccc(N)c2)c1,survivor count,"dose: 6.25 mg/kg/injection, schedule: Q01DX009 (ip), vehicle: Klucel (hydroxypropylcellulose) (HPC)",10 of 10
same,survivor count,[10],10 of 10
same,survivor count,"dose: 25.0 mg/kg/injection, schedule: Q01DX009 (ip), vehicle: Klucel (hydroxypropylcellulose) (HPC)",10 of 10
same,survivor count,[5],10 of 10
C(C#CCN1CCOCC1)#CCN1CCOCC1,survivor count,[1],7 of 10
COc1cc(C(=O)OC(C)CN2CCN(C(=O)c3cc(OC)c(OC)c(OC)c3)CC2)cc(OC)c1OC (stereo unspecified),survivor count,[8],7 of 10
Cc1ccc2c(c1)P(=O)(O)c1cc(Cl)ccc1O2,survivor count,"dose: 720.0 mg/kg/injection, schedule: Q04DX003 (ip), vehicle: water",6 of 8
same,survivor count,"dose: 1200.0 mg/kg/injection, schedule: Q04DX003 (ip), vehicle: water",3 of 8
